Experimental data published in the supplement of paper PMC8960247.
Where a name gives a salt, the structure may show the parent alone. The data scatter; read single values as rough.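 Immortalized human renal angiomyolipoma cells with an empty vector keep TSC2 lost. A luminescent ATP assay measured viability, normalized per plate to vehicle-treated wells, in low-serum medium where TSC2-rescued cells fail to grow.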

Tested on: 621-102 (TSC2-deficient)
Experiment: relative viability vs DMSO (fraction); higher = less cytotoxic
Conditions: serum: 0.1% FBS, 72 h

Row | Structure (SMILES) | relative viability (0.0128 nM) | relative viability (0.064 nM) | relative viability (0.32 nM) | relative viability (1.6 nM) | relative viability (8 nM) | relative viability (40 nM) | relative viability (200 nM) | relative viability (1000 nM) | relative viability (5000 nM)
1 | CN(C)CC[C@H](CSc1ccccc1)Nc1ccc(S(=O)(=O)NC(=O)c2ccc(N3CCN(Cc4ccccc4-c4ccc(Cl)cc4)CC3)cc2)cc1[N+](=O)[O-] [ABT-737] | 0.57 | 0.367 | 0.717 | 0.691 | 0.722 | 0.68 | 0.428 | 0.0153 | 0.0075
2 | CCC[C@H](NC(=O)/C(C#N)=C/c1cccc(Br)n1)c1ccccc1 [WP1130] | 0.639 | 1.15 | 0.924 | 0.961 | 0.926 | 0.509 | 0.205 | 0.0233 | 0.026
3 | CCC(C)(Oc1ccc(C2(c3ccc(OC(C)(CC)C(=O)O)cc3)CCCCC2)cc1)C(=O)O (configuration not stated) [Clinofibrate] | 0.681 | 0.767 | 0.706 | 0.76 | 0.709 | 0.938 | 0.729 | 0.691 | 0.73
4 | CCCCC1=NC2(CCCC2)C(=O)N1Cc1ccc(-c2ccccc2-c2nnn[nH]2)cc1 [Irbesartan] | 0.799 | 0.77 | 0.823 | 0.736 | 0.691 | 0.713 | 0.688 | 0.721 | 0.733
5 | Cc1cn(-c2cc(NC(=O)c3ccc(C)c(Nc4nccc(-c5cccnc5)n4)c3)cc(C(F)(F)F)c2)cn1 [Nilotinib (AMN-107)] | 0.895 | 0.826 | 0.733 | 0.748 | 0.831 | 0.984 | 0.768 | 0.293 | 0.012
6 | Cc1cc(Nc2nc(N[C@@H](C)c3ncc(F)cn3)ncc2Cl)[nH]n1 [AZD1480] | 0.897 | 0.841 | 0.766 | 0.825 | 0.73 | 0.694 | 0.746 | 0.789 | 0.665
7 | NC(=O)Nc1cc(-c2cccc(F)c2)sc1C(=O)N[C@H]1CCCNC1 [AZD7762] | 0.675 | 0.654 | 0.519 | 0.547 | 0.3 | 0.0422 | 0.00923 | 0.0046 | 0.0068
8 | CNC(=O)c1cc(Oc2ccc(NC(=O)Nc3ccc(Cl)c(C(F)(F)F)c3)c(F)c2)ccn1 [Regorafenib (BAY 73-4506)] | 0.691 | 0.662 | 0.662 | 0.741 | 0.794 | 0.908 | 0.734 | 0.17 | 0.00666
9 | CC(=O)c1c(C)c2cnc(Nc3ccc(N4CCNCC4)cn3)nc2n(C2CCCC2)c1=O | 0.896 | 0.833 | 0.872 | 0.813 | 0.743 | 0.843 | 0.706 | 0.706 | 0.0837
10 | CN(c1ncccc1CNc1nc(Nc2ccc3c(c2)CC(=O)N3)ncc1C(F)(F)F)S(C)(=O)=O | 0.571 | 0.757 | 0.746 | 0.745 | 0.785 | 0.639 | 0.638 | 0.586 | 0.0897
11 | COc1ccc(-c2nc3cc(C4=NNC(=O)CC4C)ccc3[nH]2)cc1 (configuration not stated) [Pimobendan] | 0.926 | 0.882 | 0.967 | 0.887 | 0.82 | 0.825 | 0.764 | 0.744 | 0.738
12 | CCN1CCCC1CNC(=O)c1cc(S(=O)(=O)CC)c(N)cc1OC (configuration not stated) [Amisulpride] | 0.64 | 0.667 | 0.689 | 0.732 | 0.775 | 0.75 | 0.79 | 0.612 | 0.545
13 | O=C1Nc2ccccc2/C1=C1/Nc2ccccc2C1=O [Indirubin] | 0.932 | 1.04 | 1.04 | 1.07 | 0.359 | 0.036 | 0.0167 | 0.00682 | 0.0113
14 | Cc1ccc(S(=O)(=O)OCC(=O)Nc2ccc(C(=O)O)c(O)c2)cc1 [S31-201] | 0.851 | 0.769 | 0.822 | 0.835 | 0.783 | 0.727 | 0.823 | 0.84 | 0.954
15 | C[C@H]1COC2=C1C(=O)C(=O)c1c2ccc2c1CCCC2(C)C [Cryptotanshinone] | 1.27 | 1.46 | 1.61 | 1.52 | 1.13 | 0.861 | 0.968 | 0.556 | 0.0523
16 | Cc1[nH]c(/C=C2\C(=O)Nc3ccc(S(=O)(=O)N(C)c4cccc(Cl)c4)cc32)c(C)c1C(=O)N1CCN(C)CC1 | 0.63 | 0.872 | 0.671 | 0.932 | 0.759 | 0.719 | 0.597 | 0.394 | 0.028
17 | CO[C@H]1C[C@@H]2CC[C@@H](C)[C@@](O)(O2)C(=O)C(=O)N2CCCC[C@H]2C(=O)O[C@H]([C@H](C)C[C@@H]2CC[C@@H](O)[C@H](OC)C2)CC(=O)[C@H](C)/C=C(\C)[C@@H](O)[C@@H](OC)C(=O)[C@H](C)C[C@H](C)/C=C/C=C/C=C/1C [Rapamycin (Sirolimus)] | 0.856 | 0.673 | 0.378 | 0.299 | 0.321 | 0.222 | 0.173 | 0.147 | 0.186
18 | CN(C)C1CCN(C(=O)c2ccc(NC(=O)Nc3ccc(-c4nc(N5CCOCC5)nc(N5CCOCC5)n4)cc3)cc2)CC1 [PKI587] | 0.219 | 0.737 | 0.717 | 0.765 | 0.518 | 0.265 | 0.0842 | 0.0462 | 0.0403
19 | CO[C@H]1/C=C\C=C(/C)C(=O)NC2=CC(=O)C(NCCN(C)C)=C(C[C@@H](C)C[C@H](OC)[C@H](O)[C@@H](C)/C=C(\C)[C@@H]1OC(N)=O)C2=O [17-DMAG] | 1.35 | 1.54 | 1.76 | 1.45 | 0.736 | 0.663 | 1.02 | 0.569 | 0.0125
20 | CN1CCN(CCOc2cc(OC3CCOCC3)c3c(Nc4c(Cl)ccc5c4OCO5)ncnc3c2)CC1 [AZD0530] | 0.956 | 0.949 | 0.925 | 0.846 | 0.704 | 0.69 | 0.832 | 0.733 | 0.464
21 | NC(=O)c1ccc(N(C(N)=O)c2c(F)cccc2F)nc1-c1ccc(F)cc1F [VX-702] | 0.963 | 0.963 | 1.09 | 0.784 | 0.629 | 0.321 | 0.762 | 0.876 | 0.686
22 | NC(CO)C(=O)NNCc1ccc(O)c(O)c1O (configuration not stated) [Benserazide HCl] | 0.965 | 0.961 | 0.918 | 0.907 | 0.754 | 0.777 | 0.588 | 0.485 | 0.569

Part of the list above, reformatted:
Row	Structure (SMILES)	relative viability (0.0128 nM)	relative viability (0.064 nM)	relative viability (0.32 nM)	relative viability (1.6 nM)	relative viability (8 nM)	relative viability (40 nM)	relative viability (200 nM)	relative viability (1000 nM)	relative viability (5000 nM)
8	CNC(=O)c1cc(Oc2ccc(NC(=O)Nc3ccc(Cl)c(C(F)(F)F)c3)c(F)c2)ccn1 [Regorafenib (BAY 73-4506)]	0.691	0.662	0.662	0.741	0.794	0.908	0.734	0.17	0.00666
9	CC(=O)c1c(C)c2cnc(Nc3ccc(N4CCNCC4)cn3)nc2n(C2CCCC2)c1=O	0.896	0.833	0.872	0.813	0.743	0.843	0.706	0.706	0.0837

Next part.

Row | Structure (SMILES) | relative viability (0.0128 nM) | relative viability (0.064 nM) | relative viability (0.32 nM) | relative viability (1.6 nM) | relative viability (8 nM) | relative viability (40 nM) | relative viability (200 nM) | relative viability (1000 nM) | relative viability (5000 nM)
23 | CNC(=O)c1ccccc1Sc1ccc2c(/C=C/c3ccccn3)n[nH]c2c1 [Axitinib] | 0.938 | 0.873 | 0.807 | 0.894 | 0.853 | 0.906 | 0.821 | 0.14 | 0.0268
24 | NC(=O)c1cccc(-c2cccc(OC(=O)NC3CCCCC3)c2)c1 [URB597] | 0.922 | 0.888 | 0.862 | 0.823 | 0.771 | 0.872 | 0.865 | 0.701 | 0.74
25 | FC(F)(F)c1ccc(Nc2nc3ccc(Oc4ccnc(-c5ncc(C(F)(F)F)[nH]5)c4)cc3[nH]2)cc1 [Raf265 derivative] | 0.839 | 0.823 | 0.805 | 0.857 | 0.746 | 0.697 | 0.546 | 0.0787 | 0.00509
26 | COC(=O)C1=C(C)NC(C)=C(C(=O)OCCN2CCN(C(c3ccccc3)c3ccccc3)CC2)C1c1cccc([N+](=O)[O-])c1 (configuration not stated) [Manidipine 2HCl] | 0.634 | 0.901 | 0.936 | 0.858 | 0.737 | 0.765 | 0.584 | 0.372 | 0.0383
27 | S=C(NCc1ccc2c(c1)OCO2)N1CCN(c2ncnc3c2oc2ccccc23)CC1 [MP-470] | 0.583 | 0.744 | 0.852 | 0.697 | 0.846 | 0.89 | 0.905 | 0.764 | 0.273
28 | CC(C)c1cnn2c(NCc3ccccc3)cc(NCCCCCCN)nc12 [BS-181 hydrochloride] | 0.899 | 0.919 | 0.829 | 0.883 | 0.791 | 0.769 | 0.724 | 0.445 | 0.00989
29 | C[C@]12CC[C@H](O)CC1=CC[C@@H]1[C@@H]2CC[C@]2(C)C(=O)CC[C@@H]12 [Dehydroepiandrosterone] | 0.75 | 0.762 | 0.814 | 0.376 | 0.854 | 0.84 | 0.827 | 0.328 | 0.281
30 | O=c1ncn2nc(Sc3ccc(F)cc3F)ccc2c1-c1c(Cl)cccc1Cl [VX-745] | 0.65 | 0.778 | 0.724 | 0.718 | 0.798 | 0.723 | 0.708 | 0.678 | 0.74
31 | CCc1c2c(nc3ccc(OC(=O)N4CCC(N5CCCCC5)CC4)cc13)-c1cc3c(c(=O)n1C2)COC(=O)[C@]3(O)CC [Irinotecan] | 0.742 | 0.73 | 0.826 | 0.726 | 0.739 | 0.753 | 0.554 | 0.0526 | 0.0315
32 | COc1ccc(C(CN(C)C)C2(O)CCCCC2)cc1 (configuration not stated) [Venlafaxine] | 0.655 | 0.721 | 0.807 | 0.799 | 0.786 | 0.782 | 0.661 | 0.714 | 0.736
33 | COC1=C2C[C@@H](C)C[C@H](OC)[C@H](O)[C@@H](C)/C=C(\C)[C@H](OC(N)=O)[C@@H](OC)/C=C\C=C(/C)C(=O)NC(=CC1=O)C2=O [Geldanamycin] | 0.617 | 0.639 | 0.726 | 0.609 | 0.235 | 0.0444 | 0.0269 | 0.0105 | 0.00804
34 | Cc1ccc(C(=O)Nc2cccc(C(F)(F)F)c2)cc1Nc1nc(-c2cccnc2)nc2c1cnn2C [NVP-BHG712] | 1.17 | 1.15 | 1.22 | 1.16 | 1.08 | 0.908 | 0.224 | 0.344 | 0.0119
35 | Cc1ccc(C(=O)N(CCCN)[C@@H](c2oc3cc(Cl)ccc3c(=O)c2Cc2ccccc2)C(C)C)cc1 | 1.67 | 1.77 | 1.77 | 1.4 | 0.829 | 0.933 | 0.474 | 1.15 | 0.709
36 | CC1=C2C[C@H]3[C@@H](CC=C4C[C@@H](O)CC[C@@]43C)[C@@H]2CC[C@]12O[C@@H]1C[C@H](C)CN[C@H]1[C@H]2C [Cyclopamine] | 0.791 | 0.768 | 0.694 | 0.709 | 0.766 | 0.693 | 0.666 | 0.658 | 0.517
37 | Cc1ccc(NC(=O)c2ccc(CN3CCN(C)CC3)cc2)cc1Nc1nccc(-c2cccnc2)n1 [Imatinib (STI571)] | 0.973 | 0.925 | 0.951 | 0.92 | 0.875 | 0.821 | 0.777 | 0.67 | 0.325
38 | Cc1ccc(NC(=O)c2ccc(CN3CCN(C)CC3)cc2)cc1Nc1nc(-c2cccnc2)cs1 [Masitinib (AB1010)] | 1.03 | 0.996 | 0.865 | 0.864 | 0.892 | 0.735 | 0.818 | 0.904 | 0.862
39 | Nc1nc2[nH]cc(CCc3ccc(C(=O)N[C@@H](CCC(=O)O)C(=O)O)cc3)c2c(=O)[nH]1 [Pemetrexed] | 1.08 | 0.992 | 1.01 | 1.06 | 0.953 | 0.788 | 0.0392 | 0.0245 | 0.0261
40 | CNC(=O)c1cc(COc2nnc(Nc3ccc(Cl)cc3)c3ccoc23)ccn1 [Telatinib] | 1.01 | 0.943 | 0.896 | 0.856 | 0.822 | 0.858 | 0.792 | 0.8 | 0.0192
41 | O=C1NC(=O)/C(=C/c2ccc3c(c2)OC(F)(F)O3)S1 | 0.764 | 0.715 | 0.151 | 0.742 | 0.751 | 0.689 | 0.77 | 0.729 | 0.775
42 | Nc1nc(Cl)nc2c1ncn2[C@@H]1O[C@H](CO)[C@@H](O)[C@@H]1F [Clofarabine] | 0.786 | 0.797 | 0.782 | 0.404 | 0.795 | 0.458 | 0.0221 | 0.0155 | 0.0138
43 | CNC(=O)c1cc(Oc2ccc(NC(=O)Nc3cc(C(C)(C)C)nn3-c3ccc4ncccc4c3)c(F)c2)ccn1 [DCC-2036] | 0.669 | 0.791 | 0.74 | 0.696 | 0.677 | 0.451 | 0.283 | 0.231 | 0.00893
